# Experimental data reported in patent US20240158755A1, “3D HUMAN DISTAL LUNG ORGANOIDS […], IMMUNE AND M[…]” (priority 2021, published 2024).
# At least one structure is not confirmed: it was looked up by name or label, or the drawing left a doubt.
# System: SARS-CoV-2
# Assay type: cell-based
compound,measurement,value
CCC(CC)COC(=O)[C@H](C)N[P@](=O)(OC[C@H]1O[C@@](C#N)(c2ccc3c(N)ncnn23)[C@H](O)[C@@H]1O)Oc1ccccc1 [remdesivir],time-course dependent increase of cytokines (qRT-PCR fold expression change),disrupted
